Laboratory results published in PubChem BioAssay AID602296 (Broad Institute, 2012).
The campaign covered roughly 2,000 compounds. About 190 (9.5%) were called active. Inconclusive results (about 14%) are left out.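 The calls were made as follows: active = fitted activation curve crossing 40% at a concentration no higher than the sample's top valid tested dose; inconclusive = flat fitted curve at 30% to 70% activation, or poor curve fit; inactive = signal decrease, flat curve within 30%, or the rest.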 Most of the strongest results are missing from this list.

Test: sustained heat shock response element induction – cell-based, mouse, luciferase, cherry-pick, dose, confirmation (AID 602296);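 also: test compounds applied by themselves with no MG132 co-treatment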
Settings: NIH3T3-HGL HSF-1 response element luciferase, 48 h; at 26 µM (top of the series) unless noted

activation, inactive:
COc1ccc(C2=CC(=O)CC(c3ccc(F)cc3)C2)cn1 (stereo not drawn) 1.78%, O=C(c1ccc(Br)cc1)N1CCCC(c2nc(-c3cccs3)no2)C1 (stereo not drawn) -37.2%, O=C(O)CSc1cc(NS(=O)(=O)c2ccc(Br)cc2)c2ccccc2c1O -84.1%, O=C(Cc1ccc([N+](=O)[O-])cc1)N1N=C(C2CC2)CC1(O)C(F)(F)F (stereo not drawn) -21.4%, O=C(COC(=O)C1CC2C=CC1C2)Nc1ccc2c(c1)OC(F)(F)O2 (stereo not drawn) -1.01%, O=C1/C(=C/c2ccccc2Cl)SC(=S)N1CCC(=O)N1CCCCC1CCO (stereo not drawn) -83.9%, O=C(NCc1cc(C(F)(F)F)cc(C(F)(F)F)c1)C1CC(c2cccc([N+](=O)[O-])c2)=NO1 (stereo not drawn) 14.3%, Cc1ccc(CNC(=O)c2cn(C3CCCCC3)c(=O)c3c2c2ccccc2n3C)o1 -20.5%, N#C/C(=C\c1ccc(Cl)cc1)c1nc2ccccc2o1 21.5%, Cc1ccc(-c2noc(CCC(=O)Nc3cc(C)ccn3)n2)cc1 0.829%, NC(=O)c1ccc(C(F)(F)F)n(Cc2cccc(Cl)c2)c1=O -53.6%, CO/N=C/c1cc([N+](=O)[O-])ccc1Sc1ccc(C)cc1 -4.88%, O=C(Oc1ccc2c(c1)OCO2)c1cc2c(s1)CCC2 0.52%, Cc1cc2c(c(/C=C/C(=O)c3ccccc3)c1)OC1(C=C2)Oc2ccccc2C(=O)N1C (stereo not drawn) -105%, O=c1ccc2ccc(Oc3ccc([N+](=O)[O-])cc3[N+](=O)[O-])cc2o1 -98.4%, COc1ccc(NC(=O)CSc2nnc(Cn3cnc([N+](=O)[O-])n3)n2C)cc1 -0.468%, CCOc1ccc(C2C3=C(CCCC3=O)Nc3ccc4ncccc4c32)cc1 (stereo not drawn) -38.2%, O=[N+]([O-])c1ccc(-n2nnnc2-c2ccccc2)c([N+](=O)[O-])c1 -99.1%, O=C(CNc1cccc2ccccc12)N/N=C/c1ccc([N+](=O)[O-])cc1 12.1%, Cc1cccc(C2C3=C(CCCC3=O)N=C3c4ccccc4C(=O)C32)c1 (stereo not drawn) -27.8%, Oc1ccccc1N=Nc1nc(-c2ccccc2)c(-c2ccccc2)[nH]1 -85.5%, CCOc1ccc(CNc2ccc(N3CCN(Cc4ccccc4)CC3)cc2)cc1 -9.36%, CCOC(=O)c1ccc(NC(=O)CCS(=O)(=O)c2ccc(Br)s2)cc1 -20.9%, Cc1cc(Cl)n2c(nc3cc(F)c(F)cc32)c1C#N -104%, COc1ccc(Br)cc1CN1CCCCCCC1 -4.28%, CCN(CCCNC(=O)COc1cc(=O)n(C)c2ccccc12)c1cccc(C)c1 -2.33%, CCCCOC(=O)CCCc1ccc([N+](=O)[O-])cc1[N+](=O)[O-] 3.01%, Cc1ccc(N=C(NOCc2ccc(Cl)cc2Cl)c2nonc2N)c(C)c1 -41.7%, Cc1ccc(/C=C/C(=O)Nc2ccc([N+](=O)[O-])c(NC(=O)/C=C/c3ccc(C)o3)c2)o1 -13.5%, CC(Oc1ccc(Cl)cc1Cl)C(=O)NCCCCc1ccccc1 (stereo not drawn) -48.6%, CCOC(=O)CC(=O)CSCC(=O)Nc1ccc(C)cc1 -2.4%, COCCCn1c(C(=O)NC2CCCCC2C)cc2c(=O)n3cccc(C)c3nc21 (stereo not drawn) -5.49%, CN(CCc1ccccc1)C(=O)c1cc(COc2cccc(C(F)(F)F)c2)on1 7.01%, CCOC(=O)/C(C#N)=C/c1cn(CCC(=O)O)nc1-c1ccc(Cl)cc1 -1.89%, O=S1(=O)c2cccc3cccc(c23)N1Cc1nnc(-c2ccccc2Br)o1 -6.01%, Cc1cc(C(=O)CCl)c(C)n1CCc1ccc(Cl)cc1 -103%, CCN(CC)C(=S)Nc1ccc(Cl)c(Cl)c1 -6.29%, CN(C)c1ccc(C(C[N+](=O)[O-])c2c(N)n(C)c(=O)n(C)c2=O)c(F)c1C#N (stereo not drawn) -2.77% [at 6 µM], O=C(Nc1ccccc1F)C(=Cc1sc(N2CCOCC2)nc1-c1ccccc1)C(=O)Nc1ccccc1F -13.9%, N/C(=N\c1nc2c(c(=O)[nH]1)CCC2)Nc1ccccc1C(F)(F)F 2.14%, CCOC(=O)C1=C(C)Nc2ncnn2C1c1ccc2c(c1)OCO2 (stereo not drawn) -2.17%, COc1ccc(NC(=O)c2sccc2SCc2cccc(C(F)(F)F)c2)cc1 -23.8%, COc1ccccc1NC(=O)Nc1nc(CC(=O)N2CCN(c3ccccc3)CC2)cs1 -49.6%, CC(Sc1nnc2ccccn12)C(N)=O (stereo not drawn) -9.32%, O=C(CCN1CCc2ccccc2C(c2ccccc2)C1)c1ccc2c(c1)OCCO2 (stereo not drawn) -101%, COc1cccc(C(=O)c2c(C)c(CCC#N)n3ccccc23)c1OC -4.16%, COc1ccc(N(CC(=O)N2CCc3ccccc32)S(=O)(=O)c2c(C)noc2C)cc1 -3.72%, Cc1ccccc1CS(=O)(=O)c1nnc([C@H](CC(C)C)NC(=O)OC(C)(C)C)o1 -104%, Cc1ccc(S(=O)(=O)Nc2cccc3ncccc23)s1 -106%, CN(C)c1ccc(C(CNC(=O)c2ccccc2)c2c[nH]c3ccccc23)cc1 (stereo not drawn) -28.5%, CCc1ccccc1NC(=O)CC(c1ccc(OC)cc1)n1cccc1 (stereo not drawn) -14.2%, S=c1[nH]c(-c2ccc(Br)cc2)cn1CCc1ccccc1 -16.7%, CC(C)(C)c1cccc(/C=N/O)c1O -3.67%, Cc1ccc(S(=O)(=O)N(C)C)cc1NC(=O)COC(=O)c1c(C)noc1C -11.6%, CC1(C)CN(c2cccc(Br)c2)C1=O -9.54%, COc1cc(/C=C2\SC(=S)N(Nc3ncc(C(F)(F)F)cc3Cl)C2=O)ccc1O -13%, COC(=O)c1cnc2c(c(C)nn2C)c1OC 9.55%, O=C1CSC(=S)N1/N=C/c1cccc(C(F)(F)F)c1 19%
